Results on 38 targets are retold here after the supplement of paper PMC12819154, “High-throughput peptide-centric local stability assay extends protein–ligand identification to membrane proteins, tissues and bacteria” (Nature Structural & Molecular Biology, 2025).

Chains of the proteins cited; added tags and fusions are not shown. Lines headed by an entry give the natural chain unless they say otherwise; changes in a name come on top.
UniProt Q92824: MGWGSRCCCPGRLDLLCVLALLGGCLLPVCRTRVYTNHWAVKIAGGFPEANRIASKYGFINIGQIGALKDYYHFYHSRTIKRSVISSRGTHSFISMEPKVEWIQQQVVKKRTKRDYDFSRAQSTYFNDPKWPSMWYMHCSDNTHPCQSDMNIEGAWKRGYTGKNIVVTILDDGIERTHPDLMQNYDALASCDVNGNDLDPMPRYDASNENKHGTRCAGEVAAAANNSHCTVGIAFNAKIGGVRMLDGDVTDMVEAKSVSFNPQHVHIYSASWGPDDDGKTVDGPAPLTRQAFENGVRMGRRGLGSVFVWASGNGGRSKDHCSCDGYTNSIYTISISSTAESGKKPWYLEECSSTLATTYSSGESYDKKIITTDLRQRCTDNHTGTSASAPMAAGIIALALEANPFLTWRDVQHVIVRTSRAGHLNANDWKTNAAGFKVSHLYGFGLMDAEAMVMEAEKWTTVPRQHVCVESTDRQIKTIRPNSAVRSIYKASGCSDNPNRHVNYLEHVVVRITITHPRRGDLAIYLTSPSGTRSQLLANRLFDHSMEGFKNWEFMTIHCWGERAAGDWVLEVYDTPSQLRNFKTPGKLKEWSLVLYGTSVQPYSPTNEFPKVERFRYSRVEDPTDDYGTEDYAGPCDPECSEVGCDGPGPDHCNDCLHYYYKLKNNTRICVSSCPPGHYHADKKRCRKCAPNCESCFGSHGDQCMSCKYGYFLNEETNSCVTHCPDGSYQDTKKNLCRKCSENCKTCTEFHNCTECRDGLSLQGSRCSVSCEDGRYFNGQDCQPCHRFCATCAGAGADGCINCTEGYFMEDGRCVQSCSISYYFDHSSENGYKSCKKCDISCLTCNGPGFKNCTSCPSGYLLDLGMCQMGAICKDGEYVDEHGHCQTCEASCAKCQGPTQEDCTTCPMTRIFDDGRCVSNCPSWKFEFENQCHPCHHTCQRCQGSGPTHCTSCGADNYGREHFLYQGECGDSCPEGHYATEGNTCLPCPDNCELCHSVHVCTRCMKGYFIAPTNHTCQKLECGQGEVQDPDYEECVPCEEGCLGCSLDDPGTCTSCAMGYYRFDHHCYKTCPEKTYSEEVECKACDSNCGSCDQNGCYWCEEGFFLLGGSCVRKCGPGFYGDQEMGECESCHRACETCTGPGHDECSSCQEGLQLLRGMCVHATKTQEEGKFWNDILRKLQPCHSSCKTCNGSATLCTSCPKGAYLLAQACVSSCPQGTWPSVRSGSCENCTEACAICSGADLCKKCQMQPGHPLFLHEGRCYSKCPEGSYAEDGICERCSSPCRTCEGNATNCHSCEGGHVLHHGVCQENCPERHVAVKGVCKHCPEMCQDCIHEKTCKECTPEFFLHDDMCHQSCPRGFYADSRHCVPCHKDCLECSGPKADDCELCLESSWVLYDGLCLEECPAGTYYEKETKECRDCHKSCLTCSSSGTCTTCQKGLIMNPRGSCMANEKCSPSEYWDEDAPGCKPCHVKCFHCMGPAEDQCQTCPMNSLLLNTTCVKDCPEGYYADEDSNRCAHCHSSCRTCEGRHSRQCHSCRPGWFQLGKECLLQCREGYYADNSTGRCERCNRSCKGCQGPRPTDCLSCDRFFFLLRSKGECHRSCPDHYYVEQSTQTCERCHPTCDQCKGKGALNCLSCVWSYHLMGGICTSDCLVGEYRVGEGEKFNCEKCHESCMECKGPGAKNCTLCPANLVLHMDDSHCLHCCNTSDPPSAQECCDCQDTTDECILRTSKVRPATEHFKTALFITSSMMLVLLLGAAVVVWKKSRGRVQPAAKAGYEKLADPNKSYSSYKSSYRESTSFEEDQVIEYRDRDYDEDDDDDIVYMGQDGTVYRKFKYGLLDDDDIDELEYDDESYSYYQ
UniProt Q96BD8: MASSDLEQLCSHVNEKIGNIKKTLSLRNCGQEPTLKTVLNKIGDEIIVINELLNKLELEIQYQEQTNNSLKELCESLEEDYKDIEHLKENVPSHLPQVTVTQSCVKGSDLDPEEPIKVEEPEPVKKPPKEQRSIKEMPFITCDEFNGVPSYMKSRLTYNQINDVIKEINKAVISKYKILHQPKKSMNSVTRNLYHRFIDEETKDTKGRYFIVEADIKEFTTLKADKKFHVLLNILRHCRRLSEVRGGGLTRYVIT
UniProt Q96D05: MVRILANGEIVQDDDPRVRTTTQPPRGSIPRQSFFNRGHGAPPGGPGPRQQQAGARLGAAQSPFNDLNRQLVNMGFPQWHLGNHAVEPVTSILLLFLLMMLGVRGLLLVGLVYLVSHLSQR
UniProt Q92664: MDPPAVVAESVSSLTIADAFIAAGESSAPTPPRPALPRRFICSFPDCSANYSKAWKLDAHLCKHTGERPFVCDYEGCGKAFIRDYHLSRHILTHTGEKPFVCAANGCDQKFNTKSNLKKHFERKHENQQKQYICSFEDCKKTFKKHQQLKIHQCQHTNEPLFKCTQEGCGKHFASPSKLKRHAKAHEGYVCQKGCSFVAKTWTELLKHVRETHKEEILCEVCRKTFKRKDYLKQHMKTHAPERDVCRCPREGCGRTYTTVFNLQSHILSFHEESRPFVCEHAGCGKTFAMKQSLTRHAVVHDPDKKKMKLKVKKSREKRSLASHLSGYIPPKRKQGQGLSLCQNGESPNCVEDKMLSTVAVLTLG
UniProt Q96CB9: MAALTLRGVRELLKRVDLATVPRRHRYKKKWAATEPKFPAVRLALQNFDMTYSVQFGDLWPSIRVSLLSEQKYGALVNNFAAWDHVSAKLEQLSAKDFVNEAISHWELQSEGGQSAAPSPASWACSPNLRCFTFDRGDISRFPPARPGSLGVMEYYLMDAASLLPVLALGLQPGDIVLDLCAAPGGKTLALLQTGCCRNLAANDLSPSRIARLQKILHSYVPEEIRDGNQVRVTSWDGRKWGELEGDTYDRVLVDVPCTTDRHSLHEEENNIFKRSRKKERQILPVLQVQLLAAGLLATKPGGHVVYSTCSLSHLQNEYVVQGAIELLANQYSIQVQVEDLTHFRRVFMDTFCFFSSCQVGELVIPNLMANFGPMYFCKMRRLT
UniProt Q96AD5: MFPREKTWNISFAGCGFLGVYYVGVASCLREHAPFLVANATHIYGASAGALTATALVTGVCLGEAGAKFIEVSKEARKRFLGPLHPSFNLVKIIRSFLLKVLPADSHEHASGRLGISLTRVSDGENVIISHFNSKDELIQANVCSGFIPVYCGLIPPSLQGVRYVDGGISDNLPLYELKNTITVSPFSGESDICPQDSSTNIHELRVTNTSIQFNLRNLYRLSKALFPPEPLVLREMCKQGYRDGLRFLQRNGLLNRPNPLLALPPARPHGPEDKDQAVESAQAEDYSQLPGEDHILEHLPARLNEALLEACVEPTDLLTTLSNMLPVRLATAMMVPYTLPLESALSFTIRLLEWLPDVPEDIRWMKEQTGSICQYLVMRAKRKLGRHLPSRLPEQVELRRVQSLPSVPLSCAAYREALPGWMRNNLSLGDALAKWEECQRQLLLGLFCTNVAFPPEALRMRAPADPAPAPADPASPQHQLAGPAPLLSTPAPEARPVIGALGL
UniProt Q92628: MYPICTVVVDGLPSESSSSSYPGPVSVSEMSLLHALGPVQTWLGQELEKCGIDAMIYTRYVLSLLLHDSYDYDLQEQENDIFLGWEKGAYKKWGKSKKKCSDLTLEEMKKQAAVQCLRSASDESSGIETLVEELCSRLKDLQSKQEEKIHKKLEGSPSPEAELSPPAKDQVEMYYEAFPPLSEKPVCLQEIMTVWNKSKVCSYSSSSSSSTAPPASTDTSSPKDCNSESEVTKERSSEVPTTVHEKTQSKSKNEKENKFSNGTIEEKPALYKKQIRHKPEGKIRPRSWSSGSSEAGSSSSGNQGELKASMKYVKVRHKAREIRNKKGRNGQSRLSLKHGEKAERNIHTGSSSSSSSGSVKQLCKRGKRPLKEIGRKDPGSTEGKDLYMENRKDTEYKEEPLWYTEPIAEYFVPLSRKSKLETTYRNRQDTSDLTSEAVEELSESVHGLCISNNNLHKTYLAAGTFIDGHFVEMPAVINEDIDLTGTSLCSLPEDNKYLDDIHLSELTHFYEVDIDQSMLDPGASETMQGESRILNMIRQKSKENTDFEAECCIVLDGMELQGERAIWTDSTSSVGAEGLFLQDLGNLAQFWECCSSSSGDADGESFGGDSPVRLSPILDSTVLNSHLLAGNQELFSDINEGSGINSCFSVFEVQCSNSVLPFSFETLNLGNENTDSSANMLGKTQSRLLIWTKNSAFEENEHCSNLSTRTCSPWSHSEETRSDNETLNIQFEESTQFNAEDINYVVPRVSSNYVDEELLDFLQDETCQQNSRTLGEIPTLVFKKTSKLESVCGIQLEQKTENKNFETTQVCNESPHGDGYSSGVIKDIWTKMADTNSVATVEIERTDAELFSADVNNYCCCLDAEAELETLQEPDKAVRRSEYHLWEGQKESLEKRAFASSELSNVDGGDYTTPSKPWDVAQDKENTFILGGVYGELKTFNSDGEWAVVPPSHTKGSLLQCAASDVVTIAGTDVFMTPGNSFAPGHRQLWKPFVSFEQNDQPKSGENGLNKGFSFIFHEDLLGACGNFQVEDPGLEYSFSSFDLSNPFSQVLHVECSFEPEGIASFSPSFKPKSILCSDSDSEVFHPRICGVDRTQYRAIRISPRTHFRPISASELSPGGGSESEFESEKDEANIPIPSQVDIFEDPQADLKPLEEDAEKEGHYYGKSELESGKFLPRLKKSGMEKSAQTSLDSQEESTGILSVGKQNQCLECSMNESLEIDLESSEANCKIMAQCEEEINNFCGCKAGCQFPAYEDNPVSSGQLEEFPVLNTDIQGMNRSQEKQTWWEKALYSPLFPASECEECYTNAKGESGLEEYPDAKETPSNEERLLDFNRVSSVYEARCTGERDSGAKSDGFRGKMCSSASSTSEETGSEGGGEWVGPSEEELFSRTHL
UniProt Q96B96: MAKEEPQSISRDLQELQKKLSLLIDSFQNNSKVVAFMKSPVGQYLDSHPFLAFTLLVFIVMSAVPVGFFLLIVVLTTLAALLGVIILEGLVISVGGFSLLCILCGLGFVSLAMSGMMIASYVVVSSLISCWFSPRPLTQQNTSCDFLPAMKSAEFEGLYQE
UniProt Q96C24: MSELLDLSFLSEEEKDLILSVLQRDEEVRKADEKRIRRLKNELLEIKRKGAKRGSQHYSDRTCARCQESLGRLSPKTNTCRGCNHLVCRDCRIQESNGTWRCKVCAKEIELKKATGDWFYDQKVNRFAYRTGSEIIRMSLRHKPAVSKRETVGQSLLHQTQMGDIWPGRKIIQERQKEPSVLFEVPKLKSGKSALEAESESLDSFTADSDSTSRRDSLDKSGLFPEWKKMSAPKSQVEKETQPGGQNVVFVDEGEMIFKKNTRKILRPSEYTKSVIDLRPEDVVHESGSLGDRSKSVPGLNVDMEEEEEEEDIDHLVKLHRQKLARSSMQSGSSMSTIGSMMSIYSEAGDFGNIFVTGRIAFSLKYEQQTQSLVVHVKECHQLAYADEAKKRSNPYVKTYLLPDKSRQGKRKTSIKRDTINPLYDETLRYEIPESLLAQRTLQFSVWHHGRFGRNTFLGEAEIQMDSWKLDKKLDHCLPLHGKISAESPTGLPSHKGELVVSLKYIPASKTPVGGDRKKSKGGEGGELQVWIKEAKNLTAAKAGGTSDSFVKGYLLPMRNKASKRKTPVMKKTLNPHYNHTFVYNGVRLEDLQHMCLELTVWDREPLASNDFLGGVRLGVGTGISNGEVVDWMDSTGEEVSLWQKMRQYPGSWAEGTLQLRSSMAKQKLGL
UniProt Q96AQ6: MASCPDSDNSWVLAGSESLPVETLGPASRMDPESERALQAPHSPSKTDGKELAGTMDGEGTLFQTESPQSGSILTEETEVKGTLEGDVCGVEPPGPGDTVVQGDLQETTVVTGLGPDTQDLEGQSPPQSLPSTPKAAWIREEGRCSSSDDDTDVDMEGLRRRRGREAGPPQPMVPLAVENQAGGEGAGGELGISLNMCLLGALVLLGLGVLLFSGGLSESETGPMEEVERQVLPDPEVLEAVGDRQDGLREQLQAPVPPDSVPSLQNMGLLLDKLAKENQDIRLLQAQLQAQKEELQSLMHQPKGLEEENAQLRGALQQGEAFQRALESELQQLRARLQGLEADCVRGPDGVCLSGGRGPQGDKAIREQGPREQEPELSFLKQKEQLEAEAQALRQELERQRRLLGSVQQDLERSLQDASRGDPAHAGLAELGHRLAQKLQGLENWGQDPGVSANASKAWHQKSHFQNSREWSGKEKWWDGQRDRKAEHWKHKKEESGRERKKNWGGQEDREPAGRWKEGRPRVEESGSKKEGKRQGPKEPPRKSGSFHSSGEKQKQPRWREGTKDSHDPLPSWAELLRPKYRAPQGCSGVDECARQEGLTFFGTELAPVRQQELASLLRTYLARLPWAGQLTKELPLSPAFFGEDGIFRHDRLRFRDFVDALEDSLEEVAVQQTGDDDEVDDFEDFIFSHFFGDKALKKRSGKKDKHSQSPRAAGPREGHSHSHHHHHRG

The list shows a part of the results. Small differences around the control level are noise.

Compound in the test: Cc1nc(Nc2ncc(C(=O)Nc3c(C)cccc3Cl)s2)cc(N2CCN(CCO)CC2)n1 [dasatinib]
The experiment in a line: log2 fold change of tryptic peptide abundance, ligand vs vehicle (limited proteolysis) (log2 ratio); higher = more trypsin-susceptible (destabilized). The following applies: ligand concentration: 5 uM; sample: K562 cleared lysate.
For “UniProt Q96E29 (peptide sequence: DYVDHSETLQK, peptide start residue: 148)”, the log2 fold change came out at 0.52.

Take “UniProt Q96CW1 (peptide sequence: DIILPFR, peptide start residue: 282)”: the log2 fold change is -0.256.

As for “ZKSCAN4 (peptide sequence: VEKEEASALTAEVR, peptide start residue: 27) (UniProt Q969J2)”, the log2 fold change was -0.407.

As to “ELP4 (peptide sequence: KEFDEDVYNHKTPESNIK, peptide start residue: 140) (UniProt Q96EB1)”, the log2 fold change is 0.3.

With “UniProt Q92824 (peptide sequence: YDASNENK, peptide start residue: 238)”, the log2 fold change is -0.231.

Turning to “ATP6V0A1 (peptide sequence: HLGTLNFGGIR, peptide start residue: 667) (UniProt Q93050)”, the log2 fold change was -0.139.

Take “INPP5D (peptide sequence: HRPEEGPPGPLGR, peptide start residue: 1173) (UniProt Q92835)”: the log2 fold change was -0.399.

On to “UniProt Q92731 (peptide sequence: SLEHTLPVNR, peptide start residue: 112)”, for which the log2 fold change was 0.0732.

On to “RPUSD4 (peptide sequence: EQDTKKEPVSTNAVQR, peptide start residue: 56) (UniProt Q96CM3)”, for which the log2 fold change was -0.162.

Regarding “UniProt Q96C57 (peptide sequence: HKVNEHEQDGNELQTTPEFR, peptide start residue: 64)”, the log2 fold change is -0.0824.

For “GPKOW (peptide sequence: ELVIPLIQNGHR, peptide start residue: 68) (UniProt Q92917)”, the log2 fold change was -0.0604.

On to “ABCC2 (peptide sequence: KEFIETGK, peptide start residue: 954) (UniProt Q92887)”, for which the log2 fold change is -0.0736.

Regarding “CENPT (peptide sequence: AVDVGAFLR, peptide start residue: 216) (UniProt Q96BT3)”, the log2 fold change is -0.146.

For “CCDC102A (peptide sequence: TKQEMLK, peptide start residue: 300) (UniProt Q96A19)”, the log2 fold change amounted to 0.417.

As to “UniProt Q96BD8 (peptide sequence: EFTTLKADK, peptide start residue: 218)”, the log2 fold change came out at 0.525.

Consider “UniProt Q96DF8 (peptide sequence: ASYTPSPAR, peptide start residue: 416)”, for which the log2 fold change is -0.251.

“UniProt Q96D05 (peptide sequence: VRILANGEIVQDDDPR, peptide start residue: 2)”: the log2 fold change was -0.144.

In the case of “ZUP1 (peptide sequence: EKQSSLTEIK, peptide start residue: 134) (UniProt Q96AP4)”, the log2 fold change was 0.27.

In the case of “TRIM44 (peptide sequence: VIADEEQK, peptide start residue: 269) (UniProt Q96DX7)”, the log2 fold change was found to be 0.157.

For the target “EMG1 (peptide sequence: AAPSDGFKPR, peptide start residue: 2) (UniProt Q92979)”, the log2 fold change is -0.0516.

Take “GTF3A (peptide sequence: HAVVHDPDKKK, peptide start residue: 297) (UniProt Q92664)”: the log2 fold change is 0.38.

In the case of “UniProt Q96BR5 (peptide sequence: ACDLGHIWACANASR, peptide start residue: 178)”, the log2 fold change was 0.102.

Regarding “NSUN4 (peptide sequence: ILHSYVPEEIRDGNQVR, peptide start residue: 216) (UniProt Q96CB9)”, the log2 fold change was 0.26.

For “UPF1 (peptide sequence: LLGHEVEDVIIK, peptide start residue: 456) (UniProt Q92900)”, the log2 fold change is -0.336.

On to “PNPLA2 (peptide sequence: LPEQVELR, peptide start residue: 393) (UniProt Q96AD5)”, for which the log2 fold change was -0.149.

Consider “GALM (peptide sequence: VLSNGVQFSR, peptide start residue: 122) (UniProt Q96C23)”, for which the log2 fold change was found to be 0.135.

In the case of “UniProt Q92628 (peptide sequence: NSAFEENEHCSNLSTR, peptide start residue: 694)”, the log2 fold change is 0.629.

As to “RPL36AL (peptide sequence: GKDSLYAQGR, peptide start residue: 29) (UniProt Q969Q0)”, the log2 fold change was determined as 0.0205.

As for “TMEM159 (peptide sequence: AKEEPQSISR, peptide start residue: 2) (UniProt Q96B96)”, the log2 fold change worked out at 0.306.

For the target “SYTL4 (peptide sequence: ATGDWFYDQK, peptide start residue: 114) (UniProt Q96C24)”, the log2 fold change worked out at 0.197.

Turning to “CHFR (peptide sequence: LVSGDHCR, peptide start residue: 55) (UniProt Q96EP1)”, the log2 fold change was 0.225.

Take “UniProt Q93096 (peptide sequence: YGVTTIVR, peptide start residue: 40)”: the log2 fold change was found to be 0.0986.

On to “UniProt Q969U6 (peptide sequence: QILPHQMTTAGPVLGEGR, peptide start residue: 369)”, for which the log2 fold change was determined as 0.306.

With “PBXIP1 (peptide sequence: MDPESER, peptide start residue: 30) (UniProt Q96AQ6)”, the log2 fold change is -0.0886.

As for “WDR34 (peptide sequence: SFVCAWNLDRR, peptide start residue: 193) (UniProt Q96EX3)”, the log2 fold change came out at 0.331.

Regarding “TFG (peptide sequence: NRPPFGQGYTQPGPGYR, peptide start residue: 384) (UniProt Q92734)”, the log2 fold change was -0.0276.

Regarding “MRPL53 (peptide sequence: TFLQTVSSEK, peptide start residue: 32) (UniProt Q96EL3)”, the log2 fold change worked out at 0.102.

Regarding “DNAJA3 (peptide sequence: GGPTVDPEELFR, peptide start residue: 176) (UniProt Q96EY1)”, the log2 fold change is -0.126.
